Source: patent US20060094672A1 (University of Texas, published 2006)
These are yes or no findings as the source states them, for the method shown. Some results given as binding are weak or reduced against the parent protein; the word gives no strength.

Amino acid sequences for entries named in this document (tags omitted).
UniProt Q07075: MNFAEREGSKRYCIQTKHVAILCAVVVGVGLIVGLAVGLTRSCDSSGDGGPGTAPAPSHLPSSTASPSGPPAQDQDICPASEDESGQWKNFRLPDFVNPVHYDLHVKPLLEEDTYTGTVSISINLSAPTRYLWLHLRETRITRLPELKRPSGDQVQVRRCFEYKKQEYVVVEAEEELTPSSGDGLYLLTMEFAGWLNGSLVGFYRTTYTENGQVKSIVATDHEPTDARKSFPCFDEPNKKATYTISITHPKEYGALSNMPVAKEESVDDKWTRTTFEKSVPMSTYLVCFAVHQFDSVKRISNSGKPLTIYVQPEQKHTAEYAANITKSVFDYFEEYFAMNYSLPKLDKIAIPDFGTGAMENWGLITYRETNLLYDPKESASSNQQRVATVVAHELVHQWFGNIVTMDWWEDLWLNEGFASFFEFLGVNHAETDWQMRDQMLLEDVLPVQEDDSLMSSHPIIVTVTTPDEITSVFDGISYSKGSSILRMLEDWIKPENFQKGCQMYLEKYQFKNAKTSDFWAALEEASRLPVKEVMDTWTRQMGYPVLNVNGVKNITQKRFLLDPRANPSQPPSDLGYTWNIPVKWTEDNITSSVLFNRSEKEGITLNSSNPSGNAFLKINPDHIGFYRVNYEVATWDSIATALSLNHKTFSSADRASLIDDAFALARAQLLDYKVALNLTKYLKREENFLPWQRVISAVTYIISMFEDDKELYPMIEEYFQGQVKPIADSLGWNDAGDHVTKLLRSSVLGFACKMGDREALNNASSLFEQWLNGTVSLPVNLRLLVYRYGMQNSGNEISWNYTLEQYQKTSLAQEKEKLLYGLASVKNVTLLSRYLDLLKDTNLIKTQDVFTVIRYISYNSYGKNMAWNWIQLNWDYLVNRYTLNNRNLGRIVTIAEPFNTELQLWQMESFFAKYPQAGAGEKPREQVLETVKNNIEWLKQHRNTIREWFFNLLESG

Target: Aminopeptidase A (APA, EC 3.4.11.7) (UniProt Q07075)
Assay: phage binding to APA immunocaptured on RC38-coated microwells (not shown)

Binder | binding
CYNLCIRECESICGADGACWTWCADGCSRSC [phage displaying … (SEQ ID NO:58)] | binds
CPKVCPRECESNC [phage displaying … (SEQ ID NO:60)] | binds
CLGQCASICVNDC [phage displaying … (SEQ ID NO:59)] | binds
